The whole screen tested about 52,000 sequences, of which about 210 (0.4%) were called active.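 The calls were made as follows: active = gene whose silencing raises cell survival under the drug, median off-target-corrected z-score across its silencing RNAs 2 or more; inactive = the rest.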 The list shows a part of the results.

This assay is described as follows: Resistance to Poly (ADP-Ribose) Polymerase inhibitor: Gene Identification via Genome-wide siRNA Screen. The note with it: mouse BRCA2 R2336H ES cells, olaparib, CellTiter-Glo viability; active compounds read high. A digest of the protocol: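 Genome-wide siRNA screen (3 siRNAs/gene, 20 nM) in mouse ES cells carrying hypomorphic BRCA2 R2336H; olaparib 500 nM added 48 h post-transfection, CellTiter-Glo viability 72 h later. Normalized to plate-median negative control; MAD z-scores, gene median, seed-adjusted.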
For CGAACGGAAAAAUGGAAGUTT against Gt4-1, the z-score is inactive: 0.331.

Turning to GCAAAUGAAUCAUGGGUGGTT against Rnf141, the z-score was inactive: 1.26. For GGAUCUCUACAACUACAUATT against Rrm1, the z-score is inactive: -2.59. Under GCCCAAUGACAAGAUGUAUTT against Clcn2 stands inactive: 1.26. Then GGCAUGAGAAACUCUGACATT against Itlnb, with inactive: -0.457; and GGGACAAGUUCAUCUGAUATT against Rin1, with inactive: 0.816. CCUCAGGUUUAGAGUUCGCTT against Krtap12-1: the z-score is inactive: 0.0981.

For the sequence GGAUAUACAAAGGAACGCATT against Wdr20, the z-score was inactive: 2.1. Consider CCUAAUCCUUUAGUGUCUATT against Zfp198, for which the z-score is inactive: -0.591.

Turning to GGCUGAGGGUAAAAAGCUATT against Acyp1, the z-score was inactive: -1.45.

Regarding GGACGUGGUUGUUACCUCCTT against LOC268885, the z-score was inactive: -0.612. As to CCCAGAAACGUGACACUCUTT against Il28ra, the z-score is inactive: -1.19. Consider “GGCAUAAAAAAGUAAAUGGTT against A230035L05Rik”, for which the z-score was inactive: -1.35. Take GGAUGUCUAUUUUUGGUCATT against Esd: the z-score is inactive: 0.572.

Turning to CCACCAACCGUUAGGUUUUTT against Ube2b, the z-score is inactive: 0.355. Take GCCAUUUGAAACUCUCCUGTT against BC021614: the z-score was inactive: -1.31. Then “GCAAUGAGGACUUACUUACTT against D4Ertd765e”, with inactive: 0.627; and GGAAUUCUCUUAGUCCCUCTT against V1rc15, with inactive: -0.0787; and GGCUUGAUCUUCGUAGUGGTT against Arf1, with inactive: 1.09. Under GGAUCUCUAUAGCAUCGUGTT against Col18a1 stands inactive: 1.73; under “GCACGAUGUCUCAGCUCUATT against 9130020G22Rik”, inactive: -2.01. Under “GCACUACAAACAGUUCCGATT against 6030410K14” stands inactive: 0.554. For “GCUGCCAAUGAACAAACCATT against 4930432K09Rik”, the z-score was inactive: 0.431. Turning to GGACAUGAAUGAAACCUUCTT against Cables1, the z-score was inactive: 0.115. In the case of “CCUUGCUGUCAUUUUGCUUTT against 0610007P22Rik”, the z-score was inactive: 1.16. As to GCAACCAUUCUGGUAUUACTT against Zfp108, the z-score was inactive: 0.697. Turning to GGACGGUAACAACUACAAUTT against Polg, the z-score was inactive: 0.991.

As for “CCUAAGCUGACUCAUAUUGTT against 1700018F24Rik”, the z-score was inactive: -0.979. For the sequence “GGUCAUGCAAUUUAUAAGATT against A530089I17Rik”, the z-score was inactive: -0.269. On to GGUUUCAGAAGACUCAGUATT against Dlx5, for which the z-score is inactive: -0.146. Under GGAGUUGAGGUGAUUAUCUTT against Olfr1222 stands inactive: -0.678; under CCGAGAUUGCCUGUUUGGUTT against Ibrdc2, inactive: 1.19. For GGAGAUAUAAAGAAGCAUUTT against BC031353, the z-score was inactive: -0.815. GGAUGAUUGAGAUAGCGAATT against Paf53: the z-score is inactive: -2.88.

For “GGACAUCGCAUGUUUGAAATT against 2700049P18Rik”, the z-score is inactive: 1.73. Under GCAGUGGUAGAACAUCCAATT against Bhmt2 stands inactive: -1.39; under GCCCUUAAAACAUAACCACTT against Fgf9, inactive: 0.148. Regarding “GGAUCUUCAAUUCGUUGGUTT against B430218L07Rik”, the z-score was inactive: -0.00993. For the sequence CGUGGAGAGAUCAAUCCCGTT against Tenr, the z-score was inactive: -1. As to CCAAAGAAGGUGAGAUUUGTT against Clstn1, the z-score was inactive: -1.19. As to GGUGGUAAUUUUUCUCAGATT against Agxt2, the z-score is inactive: 0.321. Then GCUCUAUGAAGUGAUGACGTT against Amph, with inactive: -0.189; and GGACAUAGUGCACAAAGAGTT against Yif1, with inactive: -0.599; and GGAACUGAUAAACUACUCUTT against Olfr1126, with inactive: -0.308. On to GGCUAUACAGUCUCUGAAATT against Smu1, for which the z-score was inactive: -3.33. In the case of CGAAAGGCCCAUGAAUAAATT against Ascc2, the z-score was inactive: 0.412. For the sequence GGACACGUUUCUGUGUUGUTT against Phemx, the z-score is inactive: 1.28. Then “GCAUUAGAUAGCUGAUGGCTT against 9330132A10Rik”, with inactive: -0.181. Under “GGUGUACCCUGAAUUUGAATT against 2310038K02Rik” stands inactive: 0.205; under GGUGUGUGGAUCCUCAUGUTT against Chrdl2, inactive: -1.43. Then GGACCUCGAGGACUUGUUCTT against Sfrs9, with inactive: 0.308; and GGUAGACAGUGAGUCGGAATT against Trim44, with inactive: -0.554; and GCUGUUAUGCAACAUAUAGTT against Mef2c, with inactive: -0.913.

In the case of GGAAAGAUGAGACAGCCUCTT against Impg1, the z-score is inactive: 0.532. Under CCUACCAGUGACUGCUACATT against MGC67174 stands inactive: -1.67. Then CCGUUUUUGUGGUUCAGUGTT against Plxdc1, with inactive: -0.264; and “GGAUCUCUAUAUGUGGCUUTT against 1110064N10Rik”, with inactive: 0.0315; and CCAGAUGGAAAGCGAAAAATT against Thra, with inactive: -0.993. Then “GGAAUUAAAUCCUAGCUGATT against 0610041E09Rik”, with inactive: 0.158; and “GGCAUAUGCACUUUAUUUCTT against 2810403B08Rik”, with inactive: 0.0365; and GCGAGUGCUUGGCUAUUAUTT against Ckap2, with inactive: -1.46. As to “GGUAUUUUUGCAUUUGUCCTT against 2610319K07Rik”, the z-score was inactive: -0.0518. Turning to “GGUGCUGGUGGACAUUGCATT against 2810055F11Rik”, the z-score was inactive: -2.2. Take “CCUUCAACUAUGGCAAAUATT against 2700078E11Rik”: the z-score is inactive: -2.32. Then GCUUGUUGAAAGGCCGAGCTT against Ankmy2, with inactive: 0.589; and “CCUGAGCUAGAAUCUCAGATT against 2610510D14Rik”, with inactive: 0.0638.

With “GGAAUGGAAUAGAUGCUCATT against C330014B19Rik”, the z-score is inactive: 1.79. Then GGCCCAGAACCGCAUUAAATT against Pdlim4, with inactive: -0.395; and “GCCUAAGCCCUUAAAGCGUTT against D630045E04Rik”, with inactive: -1.32; and GCCCAUUACCAAGCACAUCTT against Psma2, with inactive: -0.7. For the sequence GCUACAAGUGUUGCCUGAATT against Slit1, the z-score is inactive: -0.505. Under GAAUCUAGAAAAGUGGUGCTT against Sprrl7 stands inactive: -0.119; under GGAUAUCAUCGUGUUUAUUTT against Vps45, inactive: 1.12. Then GCUCAACAAGGAUACGGUGTT against Tnfrsf11a, with inactive: -1.79; and GGCCAUCAUGAAGAUUGCCTT against Htr2c, with inactive: 0.298. As for GCAUCUGCAUUUUUUGCUATT against Prox1, the z-score is inactive: 1.93. Under GCAGAAACAAGGUUGAGAATT against Tgm6 stands inactive: 0.383; under GGGAGCUGUUAACCUCAUCTT against Mthfr, inactive: -0.244; under GCACAAAUUCAUCACACGATT against Stk25, inactive: 0.353. As for GCCUCUCGGUUAAUUGAUCTT against Xlkd1, the z-score was inactive: 0.769. Take CGGAACCUUACAUUAAAUGTT against Tada2l: the z-score was inactive: 0.154. Under “GGCUGAAGAACUCCUACAATT against 4432409M07Rik” stands inactive: -0.763; under “GGAGUUCCUCAUGAAGAUGTT against 6030446N20Rik”, inactive: -0.494; under “GGAGCUCCAGCUUCUUGAATT against E130309D02Rik”, inactive: -1.97. Consider “GCCCUGUACAGUCAGUACATT against 2510003E04Rik”, for which the z-score was inactive: 1.13. Then GGAUCUCAAGAGUGUUGUUTT against Rnf10, with inactive: -1.04.

With GGAGUUUGAGGAAGAUCUGTT against Rbp1, the z-score was inactive: 0.352.

On to GGCCUCACUUGGAUCCUUATT against Zfx, for which the z-score is inactive: 0.224. Then GGACUAGAUAUCACUUUUUTT against Mgea5, with inactive: -0.215. Under GGAUAUCCCAUCUCCUGUUTT against D1Wsu40e stands inactive: -1.76; under GGACACUUACGUCAUCGAGTT against Rtcd1, inactive: 0.282. As for GGAUAAAACCAGAACUCUATT against Syt10, the z-score is inactive: 1.98. Under “GCGGACCACCAUUAUCCUUTT against 2010003I19Rik” stands inactive: -0.497.

As to GGUCACUGUGCAAUGAAAATT against Olfr435, the z-score was inactive: -0.172.

Regarding “GGGCUUUUUCUUGUUUUUCTT against 6720456B07Rik”, the z-score is inactive: 0.221. Under GGAGAGACGUAAGAGGCGATT against U2af1-rs2 stands inactive: -0.975; under GGAUCAUGGGUAUGGUACUTT against Dhx36, inactive: -0.384; under “CGGAUUAUUGGUUAGAAAUTT against C230013L11Rik”, inactive: -0.272. Then GCCCAACACUUGUUAAAGCTT against Fdxr, with inactive: -0.342; and GCCGAGCUCAAUGUGGGUATT against Bsn, with inactive: -0.182.

In the case of CUUCUGAAUCCAGUGCCCATT against AI316787, the z-score was inactive: 0.797. Under CCUGUUGCUUACAAUUUUUTT against Yy1 stands inactive: 1.54.

On to GGACAACAACGAGACCUAATT against Osbpl11, for which the z-score is inactive: -0.454.

(Values after PubChem BioAssay AID1347423 (Functional Genomics Laboratory (NCATS/FGL), 2020).)
